The name of at least one read-out is uncertain. Some compounds share one wording; it may come from a single statement.
Tested on: DROSME, AEDSAE, MYZUPE or LAPHEG
Experiment: Insecticidal activity screen (mortality on diet, water or plants; any of four species)
Assay type: in vivo
Conditions: active if any species controlled at 80% or more; DROSME 80 μg/well, AEDSAE 6 μg per well, LAPHEG 12 μg per well, MYZUPE 200 ppm

| Compound | Activity against Insects |
| --- | --- |
| COc1cc(CCNc2ncnc3scnc23)ccc1Oc1ccncc1C(F)(F)F [Compound 31, {2-[3-methoxy-4-(3-trifluoromethylpyridin-4-yloxy)-phenyl]-ethyl}-thiazolo[5,4-d]pyrimidin-7-ylamine] | + (“+” indicates activity) |
| CC(Cc1ccc(Oc2c(F)cnc(C(F)(F)F)c2F)cc1)Nc1ncnc2scnc12 (stereo not shown) [Compound 14, {2-[4-(3,5-Difluoro-2-trifluoromethylpyridin-4-yloxy)-phenyl]-1-methyl-ethyl}-thiazolo[5,4-d]pyrimidin-7-ylamine] | + (“+” indicates activity) |
| FC(F)(F)c1cccnc1Oc1ccc(CCNc2ncnc3scnc23)cc1 [Compound 8, thiazolo[5,4-d]pyrimidin-7-yl-{2-[4-(3-trifluoromethylpyridin-2-yloxy)-phenyl]-ethyl}-amine] | + (“+” indicates activity) |
| FC(F)(F)c1cc(Oc2ccc(CCNc3ncnc4scnc34)cc2)ncn1 [Compound 52, thiazolo[5,4-d]pyrimidin-7-yl-{2-[4-(6-trifluoromethylpyrimidin-4-yloxy)-phenyl]-ethyl}-amine] | + (“+” indicates activity) |
| FC(F)(F)c1ccncc1Oc1ccc(CCNc2ncnc3scnc23)cc1 [Compound 43, thiazolo[5,4-d]pyrimidin-7-yl-{2-[4-(4-trifluoromethylpyridin-3-yloxy)-phenyl]-ethyl}-amine] | + (“+” indicates activity) |
| Cc1cc(CCNc2ncnc3scnc23)ccc1Oc1ccncc1C(F)(F)F [Compound 47, {2-[3-methyl-4-(3-trifluoromethylpyridin-4-yloxy)-phenyl]-ethyl}-thiazolo[5,4-d]pyrimidin-7-ylamine] | + (“+” indicates activity) |
| FC(F)(F)c1ccc(Oc2ccc(CCNc3ncnc4scnc34)cc2)nc1 [Compound 50, thiazolo[5,4-d]pyrimidin-7-yl-{2-[4-(5-trifluoromethylpyridin-2-yloxy)-phenyl]-ethyl}-amine] | + (“+” indicates activity) |
| COc1cc(CCNc2ncnc3scnc23)ccc1Oc1c(F)cnc(C(F)(F)F)c1F [Compound 32, {2-[4-(3,5-difluoro-2-trifluoromethylpyridin-4-yloxy)-3-methoxyphenyl]-ethyl}-thiazolo[5,4-d]pyrimidin-7-ylamine] | + (“+” indicates activity) |
| COc1cc(CCNc2ncnc3scnc23)ccc1Oc1c(Cl)cnc(C(F)(F)F)c1Cl [Compound 48, {2-[4-(3,5-dichloro-2-trifluoromethylpyridin-4-yloxy)-3-methoxyphenyl]-ethyl}-thiazolo[5,4-d]pyrimidin-7-ylamine] | + (“+” indicates activity) |
| COc1ccc(CCNc2ncnc3scnc23)c(F)c1 [Compound 55, [2-(2-fluoro-4-methoxyphenyl)-ethyl]-thiazolo[5,4-d]pyrimidin-7-ylamine] | + (“+” indicates activity) |
| COc1ccc(CCNc2ncnc3scnc23)c(C)c1 [Compound 56, [2-(4-methoxy-2-methylphenyl)-ethyl]-thiazolo[5,4-d]pyrimidin-7-ylamine] | + (“+” indicates activity) |
| COc1cc(CCNc2ncnc3scnc23)ccc1Oc1cc(C(F)(F)F)ccn1 [Compound 17, {2-[3-methoxy-4-(4-trifluoromethylpyridin-2-yloxy)-phenyl]-ethyl}-thiazolo[5,4-d]pyrimidin-7-ylamine] | + (“+” indicates activity) |
| COC(=O)c1cnc(Oc2ccc(CCNc3ncnc4scnc34)cc2)cc1C(F)(F)F [Compound 16, 6-{4-[2-(thiazolo[5,4-d]pyrimidin-7-ylamino)-ethyl]-phenoxy}-4-trifluoromethyl-nicotinic acid methyl ester] | + (“+” indicates activity) |
| c1ccc2c(c1)oc1ccc(CCNc3ncnc4scnc34)cc12 [Compound 44, (2-dibenzofuran-2-ylethyl)-thiazolo[5,4-d]pyrimidin-7-yl-amine] | − (“−” indicates lack of activity) |
| Fc1cc(Oc2cc(C(F)(F)F)ccn2)ccc1CCNc1ncnc2scnc12 [Compound 60, {2-[2-fluoro-4-(4-trifluoromethylpyridin-2-yloxy)-phenyl]-ethyl}-thiazolo[5,4-d]pyrimidin-7-ylamine] | + (“+” indicates activity) |
| COc1cc(CCNc2ncnc3scnc23)ccc1Oc1ccc(C(F)(F)F)cc1F [Compound 30, {2-[4-(2-fluoro-4-trifluoromethylphenoxy)-3-methoxyphenyl]-ethyl}-thiazolo[5,4-d]pyrimidin-7-ylamine] | + (“+” indicates activity) |
| Cc1cc(Oc2cc(C(F)(F)F)ccn2)ccc1OCCNc1ncnc2scnc12 [Compound 9, {2-[2-methyl-4-(4-trifluoromethylpyridin-2-yloxy)-phenoxy]-ethyl}-thiazolo[5,4-d]pyrimidin-7-ylamine] | − (“−” indicates lack of activity) |

| Compound | Activity against Insects |
| --- | --- |
| COc1cc(CCNc2ncnc3scnc23)ccc1Oc1cc(C(F)(F)F)cc[n+]1[O-] [Compound 42, {2-[3-methoxy-4-(1-oxy-4-trifluoromethylpyridin-2-yloxy)-phenyl]-ethyl}-thiazolo[5,4-d]pyrimidin-7-ylamine] | − (“−” indicates lack of activity) |
| Fc1cnc(Oc2ccc(CCNc3ncnc4scnc34)cc2)c(F)c1C(F)(F)F [Compound 36, {2-[4-(3,5-difluoro-4-trifluoromethylpyridin-2-yloxy)-phenyl]-ethyl}-thiazolo[5,4-d]pyrimidin-7-ylamine] | + (“+” indicates activity) |
| Cc1cc(CCNc2ncnc3scnc23)ccc1O [Compound 20, 2-methyl-4-[2-(thiazolo[5,4-d]pyrimidin-7-ylamino)-ethyl]-phenol] | − (“−” indicates lack of activity) |
| Cc1cc(CCNc2ncnc3scnc23)ccc1Oc1nc(C(F)(F)F)c(Cl)s1 [Compound 46, {2-[4-(5-chloro-4-trifluoromethylthiazol-2-yloxy)-3-methylphenyl]-ethyl}-thiazolo[5,4-d]pyrimidin-7-ylamine] | + (“+” indicates activity) |
| Cc1cc(CCNc2ncnc3scnc23)ccc1Oc1cc(C(F)(F)F)ccn1 [Compound 23, {2-[3-methyl-4-(4-trifluoromethylpyridin-2-yloxy)-phenyl]-ethyl}-thiazolo[5,4-d]pyrimidin-7-ylamine] | + (“+” indicates activity) |
| Cc1cc(C(F)(F)F)cc(Oc2ccc(CCNc3ncnc4scnc34)cc2)n1 [Compound 62, {2-[4-(6-methyl-4-trifluoromethylpyridin-2-yloxy)-phenyl]-ethyl}-thiazolo[5,4-d]pyrimidin-7-ylamine] | + (“+” indicates activity) |
| Cc1cc(CCNc2ncnc3scnc23)ccc1Oc1cc(C(F)(F)F)ncn1 [Compound 53, {2-[3-methyl-4-(6-trifluoromethylpyrimidin-4-yloxy)-phenyl]-ethyl}-thiazolo[5,4-d]pyrimidin-7-ylamine] | + (“+” indicates activity) |
| Cc1cc(CCNc2ncnc3scnc23)ccc1Oc1c(Cl)cnc(C(F)(F)F)c1Cl [Compound 49, {2-[4-(3,5-dichloro-2-trifluoromethylpyridin-4-yloxy)-3-methylphenyl]-ethyl}-thiazolo[5,4-d]pyrimidin-7-ylamine] | − (“−” indicates lack of activity) |
| Fc1cc(Oc2cc(C(F)(F)F)ncn2)ccc1CCNc1ncnc2scnc12 [Compound 63, {2-[2-fluoro-4-(6-trifluoromethylpyrimidin-4-yloxy)-phenyl]-ethyl}-thiazolo[5,4-d]pyrimidin-7-ylamine] | + (“+” indicates activity) |
| COc1cc(CCNc2ncnc3scnc23)ccc1Oc1ccc(C(F)(F)F)cn1 [Compound 51, {2-[3-methoxy-4-(5-trifluoromethylpyridin-2-yloxy)-phenyl]-ethyl}-thiazolo[5,4-d]pyrimidin-7-ylamine] | + (“+” indicates activity) |
| Fc1cc(C(F)(F)F)cnc1Oc1ccc(CCNc2ncnc3scnc23)cc1 [Compound 61, {2-[4-(3-fluoro-5-trifluoromethylpyridin-2-yloxy)-phenyl]-ethyl}-thiazolo[5,4-d]pyrimidin-7-ylamine] | + (“+” indicates activity) |
| COC(=O)c1cnc(Oc2ccc(CCNc3ncnc4scnc34)cc2Br)cc1C(F)(F)F [Compound 27, 6-{2-bromo-4-[2-(thiazolo[5,4-d]pyrimidin-7-ylamino)-ethyl]-phenoxy}-4-trifluoromethyl-nicotinic acid methyl ester] | + (“+” indicates activity) |
| FC(F)(F)COc1ccc(CCNc2ncnc3scnc23)cn1 [Compound 4, thiazolo[5,4-d]pyrimidin-7-yl-{2-[6-(2,2,2-trifluoroethoxy)-pyridin-3-yl]-ethyl}-amine] | + (“+” indicates activity) |
| CC(Nc1ncnc2scnc12)c1ccc(Oc2cc(C(F)(F)F)ccn2)cc1 (stereo not shown) [Compound 35, thiazolo[5,4-d]pyrimidin-7-yl-{1-[4-(4-trifluoromethylpyridin-2-yloxy)-phenyl]-ethyl}-amine] | + (“+” indicates activity) |
| N#Cc1ccnc(Oc2ccc(CCNc3ncnc4scnc34)cc2)c1 [Compound 2, 2-{4-[2-(thiazolo[5,4-d]pyrimidin-7-ylamino)-ethyl]-phenoxy}-isonicotinonitrile] | + (“+” indicates activity) |
| FC(F)(F)c1ccnc(Oc2ccc(CCNc3ncnc4scnc34)cc2)c1 [Compound 7, thiazolo[5,4-d]pyrimidin-7-yl-{2-[4-(4-trifluoromethylpyridin-2-yloxy)-phenyl]-ethyl}-amine] | + (“+” indicates activity) |
| Cc1cc(Oc2cc(C(F)(F)F)ccn2)ccc1CCNc1ncnc2scnc12 [Compound 59, {2-[2-methyl-4-(4-trifluoromethylpyridin-2-yloxy)-phenyl]-ethyl}-thiazolo[5,4-d]pyrimidin-7-ylamine] | + (“+” indicates activity) |
